These results are taken from the supplement of paper PMC6411743.

By UniProt entry, the sequences of proteins in these tests, tags left out. Where a name states a change or a piece, a line headed by the entry shows the natural chain unless it says otherwise.
UniProt P49914: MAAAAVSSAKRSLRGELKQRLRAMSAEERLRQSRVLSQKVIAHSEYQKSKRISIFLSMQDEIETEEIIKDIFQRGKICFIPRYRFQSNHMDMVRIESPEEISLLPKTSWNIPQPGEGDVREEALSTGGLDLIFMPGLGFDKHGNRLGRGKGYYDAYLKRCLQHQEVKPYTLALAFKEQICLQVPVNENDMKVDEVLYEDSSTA
UniProt P48739: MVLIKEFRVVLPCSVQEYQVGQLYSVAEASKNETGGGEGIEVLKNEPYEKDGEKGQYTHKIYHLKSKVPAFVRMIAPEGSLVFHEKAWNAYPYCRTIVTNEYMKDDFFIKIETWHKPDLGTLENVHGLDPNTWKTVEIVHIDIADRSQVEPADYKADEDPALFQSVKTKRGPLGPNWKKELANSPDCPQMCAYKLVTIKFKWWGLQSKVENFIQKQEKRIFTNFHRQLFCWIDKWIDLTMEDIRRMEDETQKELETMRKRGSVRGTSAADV
UniProt P47224: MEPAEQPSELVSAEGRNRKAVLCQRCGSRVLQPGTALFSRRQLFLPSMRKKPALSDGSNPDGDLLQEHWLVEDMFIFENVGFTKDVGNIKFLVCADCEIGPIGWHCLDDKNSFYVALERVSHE
UniProt P32119: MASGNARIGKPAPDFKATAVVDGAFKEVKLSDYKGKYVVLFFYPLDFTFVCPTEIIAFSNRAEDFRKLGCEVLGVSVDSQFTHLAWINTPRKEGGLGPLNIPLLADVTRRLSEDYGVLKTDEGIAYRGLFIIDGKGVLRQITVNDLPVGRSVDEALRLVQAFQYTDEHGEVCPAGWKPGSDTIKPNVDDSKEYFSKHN
UniProt P31948, whole entry, looked up: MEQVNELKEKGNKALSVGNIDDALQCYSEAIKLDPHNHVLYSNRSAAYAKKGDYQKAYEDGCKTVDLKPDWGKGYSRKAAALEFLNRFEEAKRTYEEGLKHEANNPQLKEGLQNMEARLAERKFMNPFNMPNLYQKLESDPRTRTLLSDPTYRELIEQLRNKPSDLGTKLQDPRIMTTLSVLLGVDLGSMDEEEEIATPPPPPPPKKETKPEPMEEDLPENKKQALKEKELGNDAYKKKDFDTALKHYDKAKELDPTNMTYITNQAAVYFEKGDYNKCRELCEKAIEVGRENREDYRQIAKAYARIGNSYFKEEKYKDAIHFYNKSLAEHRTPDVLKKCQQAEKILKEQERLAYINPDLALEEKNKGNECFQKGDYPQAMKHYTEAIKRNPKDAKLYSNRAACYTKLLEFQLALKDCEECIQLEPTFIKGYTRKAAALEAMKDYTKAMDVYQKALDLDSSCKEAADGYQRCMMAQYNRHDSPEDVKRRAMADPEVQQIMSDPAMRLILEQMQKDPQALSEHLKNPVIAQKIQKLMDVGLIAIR
UniProt P28066: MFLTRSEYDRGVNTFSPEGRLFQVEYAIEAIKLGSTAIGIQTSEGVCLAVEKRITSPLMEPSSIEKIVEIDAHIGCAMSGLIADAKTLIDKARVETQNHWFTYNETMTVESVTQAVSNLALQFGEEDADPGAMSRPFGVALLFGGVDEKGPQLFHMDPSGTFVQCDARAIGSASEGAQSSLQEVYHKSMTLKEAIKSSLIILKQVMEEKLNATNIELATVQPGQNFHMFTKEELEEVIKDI
UniProt P36957: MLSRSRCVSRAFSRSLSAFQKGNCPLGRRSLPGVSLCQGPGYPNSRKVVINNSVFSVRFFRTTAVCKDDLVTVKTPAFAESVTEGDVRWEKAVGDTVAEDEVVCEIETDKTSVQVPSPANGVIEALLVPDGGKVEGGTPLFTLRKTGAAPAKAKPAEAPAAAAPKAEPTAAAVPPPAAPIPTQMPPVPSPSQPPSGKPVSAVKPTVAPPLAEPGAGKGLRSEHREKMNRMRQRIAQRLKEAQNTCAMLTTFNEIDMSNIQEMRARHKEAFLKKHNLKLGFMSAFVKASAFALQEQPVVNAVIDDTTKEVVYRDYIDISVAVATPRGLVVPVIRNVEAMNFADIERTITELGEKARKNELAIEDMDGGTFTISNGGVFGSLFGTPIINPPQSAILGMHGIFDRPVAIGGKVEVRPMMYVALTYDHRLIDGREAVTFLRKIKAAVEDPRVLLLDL
UniProt P35914: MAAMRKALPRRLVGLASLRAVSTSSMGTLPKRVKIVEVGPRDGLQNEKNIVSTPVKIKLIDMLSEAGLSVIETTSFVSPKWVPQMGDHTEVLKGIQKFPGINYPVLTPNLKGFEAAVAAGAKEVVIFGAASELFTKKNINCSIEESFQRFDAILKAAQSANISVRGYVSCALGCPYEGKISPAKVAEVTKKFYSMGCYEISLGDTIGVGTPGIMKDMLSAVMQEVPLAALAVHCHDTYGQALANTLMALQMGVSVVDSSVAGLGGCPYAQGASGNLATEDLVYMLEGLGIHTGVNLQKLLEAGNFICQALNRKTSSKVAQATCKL
UniProt P49841: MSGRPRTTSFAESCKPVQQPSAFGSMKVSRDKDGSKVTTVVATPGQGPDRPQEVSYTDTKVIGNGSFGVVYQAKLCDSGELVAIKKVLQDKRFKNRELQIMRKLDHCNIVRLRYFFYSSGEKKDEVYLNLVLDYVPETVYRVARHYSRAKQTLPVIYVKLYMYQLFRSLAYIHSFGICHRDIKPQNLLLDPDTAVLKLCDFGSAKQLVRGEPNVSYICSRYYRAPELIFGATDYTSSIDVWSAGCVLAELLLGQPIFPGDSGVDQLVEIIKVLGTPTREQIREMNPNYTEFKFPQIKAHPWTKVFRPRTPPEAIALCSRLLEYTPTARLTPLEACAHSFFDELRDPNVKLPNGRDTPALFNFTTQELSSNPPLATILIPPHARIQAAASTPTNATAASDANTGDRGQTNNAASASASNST
UniProt P27540, whole entry: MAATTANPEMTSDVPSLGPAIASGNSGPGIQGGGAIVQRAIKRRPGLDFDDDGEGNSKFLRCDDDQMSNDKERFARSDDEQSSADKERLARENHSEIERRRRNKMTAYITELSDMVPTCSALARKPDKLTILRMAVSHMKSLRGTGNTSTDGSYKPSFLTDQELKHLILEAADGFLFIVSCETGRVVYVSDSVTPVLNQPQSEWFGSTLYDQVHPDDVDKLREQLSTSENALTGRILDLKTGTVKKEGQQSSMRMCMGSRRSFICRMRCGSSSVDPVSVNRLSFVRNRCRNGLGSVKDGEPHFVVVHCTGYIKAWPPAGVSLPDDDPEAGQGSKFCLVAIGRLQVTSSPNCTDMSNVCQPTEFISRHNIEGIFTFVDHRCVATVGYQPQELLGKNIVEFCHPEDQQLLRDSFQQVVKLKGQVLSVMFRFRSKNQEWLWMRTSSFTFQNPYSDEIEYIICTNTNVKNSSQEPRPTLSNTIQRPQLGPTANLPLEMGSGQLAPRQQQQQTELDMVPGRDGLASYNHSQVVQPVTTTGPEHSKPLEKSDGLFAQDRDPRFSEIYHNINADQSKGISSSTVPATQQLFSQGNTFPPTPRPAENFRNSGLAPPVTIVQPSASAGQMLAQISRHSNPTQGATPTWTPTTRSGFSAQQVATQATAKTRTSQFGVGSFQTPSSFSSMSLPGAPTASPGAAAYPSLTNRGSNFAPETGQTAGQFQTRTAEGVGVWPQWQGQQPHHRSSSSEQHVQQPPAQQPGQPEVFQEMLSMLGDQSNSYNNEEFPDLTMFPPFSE
UniProt P42226: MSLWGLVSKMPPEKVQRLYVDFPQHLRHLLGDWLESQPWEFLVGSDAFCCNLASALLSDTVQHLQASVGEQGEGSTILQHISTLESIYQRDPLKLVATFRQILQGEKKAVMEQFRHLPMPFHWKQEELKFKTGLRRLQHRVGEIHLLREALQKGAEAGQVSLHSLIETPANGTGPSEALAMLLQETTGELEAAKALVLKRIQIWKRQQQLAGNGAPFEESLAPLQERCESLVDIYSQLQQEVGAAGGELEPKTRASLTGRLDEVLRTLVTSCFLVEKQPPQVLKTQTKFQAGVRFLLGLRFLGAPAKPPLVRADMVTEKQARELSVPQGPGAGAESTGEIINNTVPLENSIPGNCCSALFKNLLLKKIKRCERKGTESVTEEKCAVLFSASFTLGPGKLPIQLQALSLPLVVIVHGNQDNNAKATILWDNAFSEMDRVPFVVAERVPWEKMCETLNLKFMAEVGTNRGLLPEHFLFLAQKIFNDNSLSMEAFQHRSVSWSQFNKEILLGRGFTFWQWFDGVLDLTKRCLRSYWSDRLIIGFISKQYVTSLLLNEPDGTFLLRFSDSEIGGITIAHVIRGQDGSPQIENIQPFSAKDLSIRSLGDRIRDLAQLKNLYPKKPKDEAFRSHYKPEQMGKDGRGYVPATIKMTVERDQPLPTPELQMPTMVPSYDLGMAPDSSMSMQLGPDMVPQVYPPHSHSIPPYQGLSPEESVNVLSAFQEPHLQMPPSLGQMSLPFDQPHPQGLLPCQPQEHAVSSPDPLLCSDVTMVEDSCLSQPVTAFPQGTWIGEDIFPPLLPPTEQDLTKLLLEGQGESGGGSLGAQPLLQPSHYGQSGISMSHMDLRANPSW
UniProt P28838: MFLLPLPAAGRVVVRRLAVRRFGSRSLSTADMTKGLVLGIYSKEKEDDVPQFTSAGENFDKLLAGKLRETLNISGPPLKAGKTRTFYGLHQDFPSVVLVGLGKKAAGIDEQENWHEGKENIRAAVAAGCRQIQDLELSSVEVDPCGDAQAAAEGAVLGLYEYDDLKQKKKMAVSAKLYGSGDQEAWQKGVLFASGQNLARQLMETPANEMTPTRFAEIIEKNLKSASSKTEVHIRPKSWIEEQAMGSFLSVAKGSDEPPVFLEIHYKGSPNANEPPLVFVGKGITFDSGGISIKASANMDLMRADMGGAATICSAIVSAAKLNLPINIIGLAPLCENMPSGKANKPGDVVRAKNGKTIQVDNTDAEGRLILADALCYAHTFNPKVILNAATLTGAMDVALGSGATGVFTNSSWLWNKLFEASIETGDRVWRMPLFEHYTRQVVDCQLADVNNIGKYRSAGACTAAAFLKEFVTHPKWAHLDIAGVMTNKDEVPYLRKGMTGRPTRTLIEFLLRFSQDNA

± gives the standard deviation of the averaged measurements. Some of the results follow.

Compound in the assay: Nc1nc2c(ncn2[C@@H]2O[C@H](COP(=O)(O)OP(=O)(O)OP(=O)(O)O)[C@@H](O)[C@H]2O)c(=O)[nH]1 [guanosine triphosphate]
Description: NP40-soluble protein abundance relative to vehicle (solubility fold change) (ratio); higher = more soluble protein in presence of GTP. The essentials:
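Data come from three independent experiments in which Dounce-homogenised Jurkat crude lysate was treated at eight concentrations from 0.1 to 10 mM. Treatment ran 10 min at room temperature and then 3 min at 37 °C, after which 0.8% NP40 and benzonase were added for 60 min at 4 °C before ultracentrifugation. The supernatant underwent TMT labelling and LC-MS/MS, and vsn-normalised intensities were expressed as fold change against the detergent-processed vehicle in each replicate.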

For MTHFS (UniProt P49914), the NP40-soluble protein abundance came out at 0.926 ± 0.043 (concentration: 0.1mM); 0.957 ± 0.032 (concentration: 0.5mM); 0.846 ± 0.07 (concentration: 1mM); 0.861 ± 0.046 (concentration: 2mM); 0.824 ± 0.056 (concentration: 4mM); 0.836 ± 0.072 (concentration: 6mM). Besides, the NP40-soluble protein abundance turned out to be 0.794 ± 0.093 (concentration: 8mM) and 0.804 ± 0.082 (concentration: 10mM).
On to UniProt P48739 and related entries, for which the NP40-soluble protein abundance reads like this: (concentration: 0.1mM) 1.01 ± 0.022; (concentration: 0.5mM) 1.02 ± 0.04; (concentration: 1mM) 0.924 ± 0.028; (concentration: 2mM) 0.888 ± 0.035; (concentration: 4mM) 0.881 ± 0.052; (concentration: 6mM) 0.879 ± 0.027. For the same target, the NP40-soluble protein abundance amounted to 0.87 ± 0.072 (concentration: 8mM) and 0.83 ± 0.07 (concentration: 10mM).
In the case of RABIF (UniProt P47224), the NP40-soluble protein abundance by setting is: (concentration: 0.1mM) 0.947 ± 0.14; (concentration: 0.5mM) 0.919 ± 0.065; (concentration: 1mM) 0.897 ± 0.092; (concentration: 2mM) 0.897 ± 0.074; (concentration: 4mM) 0.897 ± 0.13; (concentration: 6mM) 0.856 ± 0.1. Besides, the NP40-soluble protein abundance was 0.829 ± 0.13 (concentration: 8mM) and 0.868 ± 0.11 (concentration: 10mM).
For PRDX2 (UniProt P32119), the NP40-soluble protein abundance runs as follows: (concentration: 0.1mM) 0.901 ± 0.063; (concentration: 0.5mM) 0.929 ± 0.064; (concentration: 1mM) 0.891 ± 0.078; (concentration: 2mM) 0.84 ± 0.07; (concentration: 4mM) 0.819 ± 0.073; (concentration: 6mM) 0.846 ± 0.064. Also, the NP40-soluble protein abundance (concentration: 8mM) is 0.819 ± 0.089 and the NP40-soluble protein abundance (concentration: 10mM) was 0.8 ± 0.077.
Take STIP1 (UniProt P31948): the NP40-soluble protein abundance (concentration: 0.1mM) stood at 0.857 ± 0.02; the NP40-soluble protein abundance (concentration: 0.5mM) was 0.864 ± 0.031; the NP40-soluble protein abundance (concentration: 1mM) amounted to 1.01 ± 0.028; the NP40-soluble protein abundance (concentration: 2mM) worked out at 0.969 ± 0.051; the NP40-soluble protein abundance (concentration: 4mM) was 0.94 ± 0.011; the NP40-soluble protein abundance (concentration: 6mM) is 0.98 ± 0.032. The NP40-soluble protein abundance came to 0.966 ± 0.021 (concentration: 8mM) and 0.993 ± 0.048 (concentration: 10mM).
For UniProt P28066 and related entries, the NP40-soluble protein abundance by setting is: (concentration: 0.1mM) 0.937 ± 0.079; (concentration: 0.5mM) 0.965 ± 0.037; (concentration: 1mM) 0.987 ± 0.073; (concentration: 2mM) 1.04 ± 0.12; (concentration: 4mM) 1.02 ± 0.14; (concentration: 6mM) 1.04 ± 0.14. The NP40-soluble protein abundance (concentration: 8mM) amounted to 1.01 ± 0.096 and the NP40-soluble protein abundance (concentration: 10mM) was 1 ± 0.14.
Consider DLST (UniProt P36957), for which the NP40-soluble protein abundance reads like this: (concentration: 0.1mM) 1.1 ± 0.12; (concentration: 0.5mM) 1.21 ± 0.27; (concentration: 1mM) 1.34 ± 0.35; (concentration: 2mM) 1.45 ± 0.39; (concentration: 4mM) 1.57 ± 0.45; (concentration: 6mM) 1.55 ± 0.51. Besides, the NP40-soluble protein abundance (concentration: 8mM) was 1.64 ± 0.55 and the NP40-soluble protein abundance (concentration: 10mM) worked out at 1.63 ± 0.54.
Regarding HMGCL (UniProt P35914), the NP40-soluble protein abundance by setting is: (concentration: 0.1mM) 0.92 ± 0.032; (concentration: 0.5mM) 0.878 ± 0.022; (concentration: 1mM) 0.924 ± 0.045; (concentration: 2mM) 0.932 ± 0.071; (concentration: 4mM) 0.896 ± 0.035; (concentration: 6mM) 0.899 ± 0.038. In addition, the NP40-soluble protein abundance stood at 0.842 ± 0.054 (concentration: 8mM) and 0.897 ± 0.055 (concentration: 10mM).
Turning to UniProt P49841 and related entries, the NP40-soluble protein abundance was 0.946 ± 0.018 (concentration: 0.1mM); 0.953 ± 0.014 (concentration: 0.5mM); 0.872 ± 0.026 (concentration: 1mM); 0.878 ± 0.016 (concentration: 2mM); 0.901 ± 0.035 (concentration: 4mM); 0.884 ± 0.0089 (concentration: 6mM). For the same target, the NP40-soluble protein abundance is 0.902 ± 0.028 (concentration: 8mM) and 0.874 ± 0.066 (concentration: 10mM).
As to UniProt P27540 and related entries, the NP40-soluble protein abundance by setting is: (concentration: 0.1mM) 0.978 ± 0.071; (concentration: 0.5mM) 0.957 ± 0.12; (concentration: 1mM) 0.957 ± 0.027; (concentration: 2mM) 0.982 ± 0.11; (concentration: 4mM) 1.02 ± 0.023; (concentration: 6mM) 0.961 ± 0.055. Moreover, the NP40-soluble protein abundance is, setting by setting: (concentration: 8mM) 0.961 ± 0.059; (concentration: 10mM) 0.927 ± 0.027.
As for RPL35 (UniProt P42766), the NP40-soluble protein abundance worked out at 0.956 ± 0.073 (concentration: 0.1mM); 0.957 ± 0.029 (concentration: 0.5mM); 1.05 ± 0.066 (concentration: 1mM); 1.03 ± 0.05 (concentration: 2mM); 1.01 ± 0.16 (concentration: 4mM); 0.967 ± 0.14 (concentration: 6mM). Besides, the NP40-soluble protein abundance reads like this: (concentration: 8mM) 0.564 ± 0.024; (concentration: 10mM) 1.09 ± 0.21.
Turning to UniProt P42226 and related entries, the NP40-soluble protein abundance worked out at 1 ± 0.051 (concentration: 0.1mM); 0.988 ± 0.054 (concentration: 0.5mM); 0.96 ± 0.019 (concentration: 1mM); 0.937 ± 0.041 (concentration: 2mM); 0.928 ± 0.025 (concentration: 4mM); 0.896 ± 0.026 (concentration: 6mM). Also, the NP40-soluble protein abundance (concentration: 8mM) was 0.952 ± 0.031 and the NP40-soluble protein abundance (concentration: 10mM) worked out at 0.896 ± 0.049.
For PTDSS1 (UniProt P48651), the NP40-soluble protein abundance (concentration: 0.1mM) amounted to 1.16 ± 0.25; the NP40-soluble protein abundance (concentration: 0.5mM) was determined as 1.16 ± 0.29; the NP40-soluble protein abundance (concentration: 1mM) amounted to 1.16 ± 0.21; the NP40-soluble protein abundance (concentration: 2mM) worked out at 1.38 ± 0.3; the NP40-soluble protein abundance (concentration: 4mM) stood at 1.54 ± 0.37; the NP40-soluble protein abundance (concentration: 6mM) came out at 1.54 ± 0.44. Besides, the NP40-soluble protein abundance runs as follows: (concentration: 8mM) 1.62 ± 0.39; (concentration: 10mM) 1.64 ± 0.35.
Turning to RPL3 (UniProt P39023), the NP40-soluble protein abundance came to 1 ± 0.11 (concentration: 0.1mM); 1.05 ± 0.2 (concentration: 0.5mM); 0.979 ± 0.18 (concentration: 1mM); 0.983 ± 0.27 (concentration: 2mM); 0.905 ± 0.25 (concentration: 4mM); 0.894 ± 0.23 (concentration: 6mM). Also, the NP40-soluble protein abundance was 0.776 ± 0.13 (concentration: 8mM) and 0.915 ± 0.21 (concentration: 10mM).
For UniProt P28838 and related entries, the NP40-soluble protein abundance (concentration: 0.1mM) stood at 0.976 ± 0.034; the NP40-soluble protein abundance (concentration: 0.5mM) came to 0.991 ± 0.06; the NP40-soluble protein abundance (concentration: 1mM) amounted to 0.957 ± 0.043; the NP40-soluble protein abundance (concentration: 2mM) stood at 0.934 ± 0.04; the NP40-soluble protein abundance (concentration: 4mM) was determined as 0.924 ± 0.043; the NP40-soluble protein abundance (concentration: 6mM) turned out to be 0.935 ± 0.056. For the same target, the NP40-soluble protein abundance reads like this: (concentration: 8mM) 0.915 ± 0.052; (concentration: 10mM) 0.887 ± 0.036.
